Data as given in PubChem BioAssay AID1259254 (NCATS, 2017).
The whole screen tested about 59,000 reagents; below is an unselected part. About 1,550 of them (2.6%) count as active. 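G2 share is only a proxy for re-replication; each gene was hit by three separate siRNAs, and active genes were retested.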 Reagents against one gene are numbered here. Not all columns of the deposit are shown. Not stated in the record: the amount of reagent.

- Aim: 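Finding genes that stop cells copying their DNA twice in one cycle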 (primary screen)
- System: human HCT116 colorectal cancer cells
- Reagent: single siRNA against human genes
- Time to read-out: 3 days
- Read-out: 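Imaged Hoechst DNA stain sorts each cell into a cycle phase by DNA amount; per plate, G2 fraction set to 0% for non-targeting and 100% for GMNN siRNA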
- Direction: G2 robust z-score and G2 cells, % of GMNN control: higher = more G2 cells, more excess DNA replication
- Hit rule: 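An siRNA counts as active if its G2 robust z-score lies at least 5 MADs above the screen median; here such calls match roughly 38% of GMNN control or more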

For LY6E (lymphocyte antigen 6 family member E) #1 the deposit lists G2 robust z-score 1.45; G2 cells, % of GMNN control 13.1; inactive.
Knock-down of LY6E (lymphocyte antigen 6 family member E) #2 gave: G2 robust z-score 0.185; G2 cells, % of GMNN control 4.27; inactive.
LY6E (lymphocyte antigen 6 family member E) #3 showed G2 robust z-score -0.885; G2 cells, % of GMNN control -3.26; inactive.
After knock-down of CMKLR1 (chemerin chemokine-like receptor 1) #1, the record shows G2 robust z-score 0.0308; G2 cells, % of GMNN control 3.18; inactive.
Against CMKLR1 (chemerin chemokine-like receptor 1) #2 the deposit lists G2 robust z-score -0.155; G2 cells, % of GMNN control 1.88; inactive.
Knock-down of CMKLR1 (chemerin chemokine-like receptor 1) #3 gave: G2 robust z-score 6.2; G2 cells, % of GMNN control 46.6; active.
For GIPC3 (GIPC PDZ domain containing family member 3) #1, the entry reads G2 robust z-score -0.132; G2 cells, % of GMNN control 2.04; inactive.
GIPC3 (GIPC PDZ domain containing family member 3) #2 scored G2 robust z-score 2.07; G2 cells, % of GMNN control 17.6; inactive.
For GIPC3 (GIPC PDZ domain containing family member 3) #3, the values are G2 robust z-score -0.991; G2 cells, % of GMNN control -4.01; inactive.
Knock-down of ARHGEF12 (Rho guanine nucleotide exchange factor 12) #1 gave: G2 robust z-score -0.76; G2 cells, % of GMNN control -2.38; inactive.
ARHGEF12 (Rho guanine nucleotide exchange factor 12) #2 gave G2 robust z-score 1.21; G2 cells, % of GMNN control 11.5; inactive.
ARHGEF12 (Rho guanine nucleotide exchange factor 12) #3 gave G2 robust z-score -1.13; G2 cells, % of GMNN control -4.96; inactive.

Reagents listed above called active:
CMKLR1 (chemerin chemokine-like receptor 1) #3 | G2 robust z-score: 6.2; G2 cells, % of GMNN control: 46.6; Call: active

Further entries follow:
Against ABCB7 (ATP binding cassette subfamily B member 7) #1 the deposit lists G2 robust z-score -1.44; G2 cells, % of GMNN control -7.17; inactive.
For ABCB7 (ATP binding cassette subfamily B member 7) #2 the deposit lists G2 robust z-score -0.184; G2 cells, % of GMNN control 1.67; inactive.
Depletion of ABCB7 (ATP binding cassette subfamily B member 7) #3 gave: G2 robust z-score 1.12; G2 cells, % of GMNN control 10.8; inactive.
Against DYNC2LI1 (dynein cytoplasmic 2 light intermediate chain 1) #1, the values are G2 robust z-score -0.968; G2 cells, % of GMNN control -3.85; inactive.
Knock-down of DYNC2LI1 (dynein cytoplasmic 2 light intermediate chain 1) #2 came out at: G2 robust z-score -0.213; G2 cells, % of GMNN control 1.47; inactive.
Depletion of DYNC2LI1 (dynein cytoplasmic 2 light intermediate chain 1) #3 resulted in: G2 robust z-score 0.693; G2 cells, % of GMNN control 7.84; inactive.
SNRNP25 (small nuclear ribonucleoprotein U11/U12 subunit 25) #1 showed G2 robust z-score -0.249; G2 cells, % of GMNN control 1.21; inactive.
For SNRNP25 (small nuclear ribonucleoprotein U11/U12 subunit 25) #2, the values are G2 robust z-score -0.211; G2 cells, % of GMNN control 1.48; inactive.
After knock-down of SNRNP25 (small nuclear ribonucleoprotein U11/U12 subunit 25) #3, the screen gave G2 robust z-score -0.52; G2 cells, % of GMNN control -0.691; inactive.
After knock-down of USH1C (USH1 protein network component harmonin) #1 the results were G2 robust z-score 1.02; G2 cells, % of GMNN control 10.2; inactive.
USH1C (USH1 protein network component harmonin) #2 gave G2 robust z-score 0.593; G2 cells, % of GMNN control 7.14; inactive.
With knock-down of USH1C (USH1 protein network component harmonin) #3 the results were G2 robust z-score -0.282; G2 cells, % of GMNN control 0.982; inactive.
